Laboratory results taken from patent US9573955B2, “Compounds” (CHIESI FARMACEUTICI S.p.A., priority 2013, dated 2017).
Some results were stated once for a whole list of compounds, not compound by compound.

Molecular target: T1, human neutrophil elastase (HNE) (Homo sapiens, UniProt P08246)
T1 sequence (P08246 30-267): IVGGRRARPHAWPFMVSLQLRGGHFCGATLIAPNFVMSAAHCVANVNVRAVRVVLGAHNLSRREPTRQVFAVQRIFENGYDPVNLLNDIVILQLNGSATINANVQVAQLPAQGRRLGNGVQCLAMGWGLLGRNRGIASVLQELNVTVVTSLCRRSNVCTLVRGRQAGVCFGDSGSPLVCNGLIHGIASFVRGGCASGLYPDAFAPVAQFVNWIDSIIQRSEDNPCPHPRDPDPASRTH
Test: HNE Enzyme Assay
Assay type: biochemical
Details: human leukocyte elastase, substrate MeOSuc-Ala-Ala-Pro-Val-AMC 100 μM, 25° C., 30 minutes, pH 7.5; read-out: HNE inhibition

Row | Compound | IC50
1 | COC(=O)C1=C(C)N(c2cccc(C(F)(F)F)c2)c2n[nH]c(=O)n2[C@@H]1c1ccc(C#N)cc1CC[n+]1ccn2ccccc21 [Example 32, 1-(2-{5-Cyano-2-[(R)-6-methoxycarbonyl-7-methyl-3-oxo-8-(3-trifluoromethyl-phenyl)-2,3,5,8-tetrahydro-[1,2,4]triazolo[4,3-a]pyrimidin-5-yl]-phenyl}-ethyl)imidazo[1,2-a]pyridin-1-ium bromide] | < 0.02 µM
2 | COC(=O)C1=C(C)N(c2cccc(C(F)(F)F)c2)c2n[nH]c(=O)n2[C@@H]1c1ccc(C#N)cc1CC[N+](C)(C)Cc1ccc2ncccc2c1 [Example 27, (2-{5-Cyano-2-[(R)-6-methoxycarbonyl-7-methyl-3-oxo-8-(3-trifluoromethyl-phenyl)-2,3,5,8-tetrahydro-[1,2,4]triazolo[4,3a]pyrimidin-5-yl]-phenyl}-ethyl)-dimethyl-quinolin-5-ylmethyl-ammonium bromide] | < 0.02 µM
3 | COC(=O)C1=C(C)N(c2cccc(C(F)(F)F)c2)c2n[nH]c(=O)n2[C@@H]1c1ccc(C#N)cc1CC[N+](C)(C)Cc1ccccn1 [Example 7, (2-{5-Cyano-2-[(R)-6-methoxycarbonyl-7-methyl-3-oxo-8-(3-trifluoromethyl-phenyl)-2,3,5,8-tetrahydro-[1,2,4]triazolo[4,3-a]pyrimidin-5-yl]-phenyl}-ethyl)-dimethyl-pyridin-2-ylmethyl-ammonium bromide] | < 0.02 µM
